Results on 70 compounds are retold here after US20260079169A1, “VOLATILE ORGANIC COMPOUNDS AS MARKERS FOR CELLULAR COMMUNICATION” (Technion Research and Development Foundation Limited, priority 2020, published 2026).

Each structure is given as a SMILES string. For part of these data: No dose or concentration is given here for some results.

For one series, the system named is different-cell pairs of BEAS-2B, A549, H1299, H1975 without physical contact under a mutual headspace. Kind of series: VOCs headspace analysis (ITEX GC-MS) of different-cell pair co-culture headspace groups (Format-3), bulk cell samples. Also on record: key to Category (VOC increased or decreased relative to the control): ↑: Increased; ↓: decreased; ↑*: <0.01; ↑**: <0.001. Conditions: all groups; T24, T48 and T72 h. Type of series: cell-based, human.
`O=C(c1ccccc1)c1ccccc1` [Benzophenone]: the “VOCs found at T24, T48 and T72 h incubation in all groups” value was “commonly found”. `CCC(C)C=O` (stereo not drawn) [2-methyl butanal]: the “VOCs found at T24, T48 and T72 h incubation in all groups” value was “commonly found”.

Staying with this series, now noted: different-cell pair co-culture headspace (Format-3); 24 h; averaged peak area (n = 3).
In the case of `CCCCC(C)CCC(C)CCC` (stereo not drawn) [Undecane, 4,7-dimethyl-], the “Category (VOC increased or decreased relative to the control)” value is given as “↑”. For the compound `CCOC(=O)c1ccc(OCC)cc1` [Benzoic acid, 4-ethoxy-, ethyl ester], the “Category (VOC increased or decreased relative to the control)” value was “↑”. `CCCCCCCCCCCCCCCC` [Hexadecane]: the “Category (VOC increased or decreased relative to the control)” value is on record as “↑* (↑*: <0.01)”. Same read-out and setting: under `CC/C=C\CCOC(=O)CC` [3-Hexen-1-ol, propanoate, (Z)-] stands “↑”; under `CC(C)(C)c1cc(C=O)cc(C(C)(C)C)c1O` [3,5-di-tert-Butyl-4-hydroxybenzaldehyde], “↓”; under `CCCCCCCCCCCCCC(C)=O` [2-Pontadecanone], “↓”. Still for that read-out and setting: to `CC(=O)c1cncnc1` [5-Acetylpyrimidine] belongs “↑* (↑*: <0.01)”. `CCCCCC(C)CC(C)(C)CC` (stereo not drawn) [Decane, 3,3,5-trimethyl-]: the “Category (VOC increased or decreased relative to the control)” value is on record as “↑”. Same read-out and setting: to `NC(=O)CF` [Acetamide, 2-fluoro-] belongs “↑”; to `CC(C)(C)c1cccc(C(C)(C)C)c1` [Benzene, 1,3-bis(1,1-dimethylethyl)-], “↑”; to `CCC=C(CC)CC` [3-Ethyl-3-hexene], “↑”. For `CCCC=C(C)CC` [3-Heptene, 3-methyl-], the “Category (VOC increased or decreased relative to the control)” value was “↑* (↑*: <0.01)”. The same measure, in the same setting: to `N#C/C=C/C#N` [Fumaronitrile] belongs “↑”; to `O=COCC(=O)c1ccccc1` [Ethanone, 2-(formyloxy)-1-phenyl-], “↑* (↑*: <0.01)”.

Regarding `CCOC(=O)C1Oc2ccccc2O1` [1,3-Benzodioxole-2-carboxylic acid, ethyl ester], the “Category (VOC increased or decreased relative to the control)” value is “↑”.

As for `CCCCCCCCCCCCCCCC(C)=O` [2-Heptadecanone], the “Category (VOC increased or decreased relative to the control)” value is reported as “↓”.

`CCCC(C)CC(C)CC` (stereo not drawn) [Octane, 3,5-dimethyl-]: the “Category (VOC increased or decreased relative to the control)” value is reported as “↑* (↑*: <0.01)”. On to `COC(=O)C(OC)OC` [Acetic acid, dimethoxy-, methyl ester], for which the “Category (VOC increased or decreased relative to the control)” value is “↑** (↑**: <0.001)”.

The series is the same for the next values; noted with them: different-cell pair co-culture headspace (Format-3); 48 h; averaged peak area (n = 3).
As to `CC=C(C)CCCC` [3-methyl-2-Heptene], the “Category (VOC increased or decreased relative to the control)” value is “↓”. `CCCOC(OCCC)OCCC` [Tripropyl orthoformate]: the “Category (VOC increased or decreased relative to the control)” value is reported as “↑* (↑*: <0.01)”. The same measure, in the same setting: under `c1ccccc1` [Benzene] stands “↓”. Same read-out and setting: under `CCCOC(=O)c1ccc(F)c(C(F)(F)F)c1` [4-Fluoro-3-trifluoromethylbenzoic acid, propyl ester] stands “↑* (↑*: <0.01)”. Still for that read-out and setting: under `O=C(O)CO` [Acetic acid, hydroxy-] stands “↑* (↑*: <0.01)”; under `CCCCCCCCCCCCCCC` [Pentadecane], “↑* (↑*: <0.01)”. With `CCCCCCCCCCCC` [Dodecane], the “Category (VOC increased or decreased relative to the control)” value was “↓”. The same measure, in the same setting: to `COC` [Dimethyl ether] belongs “↑”. On the same count and under the same terms, under `CN(C)c1cc(C(=O)O)cc(C(=O)O)c1` [1,3-benzenedicarboxylic acid, 5-(dimethylamino)-] stands “↓”.

As to `OC1CCCCC1` [Cyclohexanol], the “Category (VOC increased or decreased relative to the control)” value is recorded as “↑* (↑*: <0.01)”. Consider `CC(C)(C)c1ccc(C(C)(C)C)c(O)c1` [Phenol, 2,5-bis(1,1-dimethylethyl)-], for which the “Category (VOC increased or decreased relative to the control)” value is “↑* (↑*: <0.01)”. With `C1=Cc2ccc3cccc4c3c2C(=CC4)C1` [1,9-Dihydropyrene], the “Category (VOC increased or decreased relative to the control)” value is on record as “↑* (↑*: <0.01)”. The same measure, in the same setting: under `CC(C)(C)c1cccc(C(C)(C)C)c1` [Benzene, 1,3-bis(1,1-dimethylethyl)-] stands “↓”. Same read-out and setting: to `CCCC(C)C=O` (stereo not drawn) [Pentanal, 2-methyl-] belongs “↑”; to `C#CF` [Ethyne, fluoro-], “↑”.

With `O=S=O` [Sulfur dioxide], the “Category (VOC increased or decreased relative to the control)” value is on record as “↑* (↑*: <0.01)”. The same measure, in the same setting: under `CCCCCC(C)CCC(C)CC` (stereo not drawn) [Undecane, 3,6-dimethyl-] stands “↑* (↑*: <0.01)”; under `C=CCOCCCC` [Butane, 1-(2-propenyloxy)-], “↑* (↑*: <0.01)”. Same read-out and setting: to `CC(C)C(C)C(C)(C)C` (stereo not drawn) [Pentane, 2,2,3,4-tetramethyl-] belongs “↑”; to `CC(C)(C)C` [Neopentane], “↑”; to `C/C=C/C(C)CCC` (stereo not drawn) [2-Heptene, 4-methyl-, (E)-], “↓”.

As for `CCCCCCC(C)CC(C)C` (stereo not drawn) [Decane, 2,4-dimethyl-], the “Category (VOC increased or decreased relative to the control)” value is recorded as “↓”. On the same count and under the same terms, to `CCCOC(=O)OC(C)(CC)CC` [3-Methylpentan-3-yl propyl carbonate] belongs “↑* (↑*: <0.01)”; to `CCCC(C)(C)CC` [Hexane, 3,3-dimethyl-], “↓”. On the same count and under the same terms, under `c1ccc([C@H]2CC[C@H]2c2ccccc2)cc1` [Benzene, 1,1′-(1,2-cyclobutanediyl)bis-, cis-] stands “↑”; under `CC(C)CCCC(=O)c1ccccc1` [1-Hexanone, 5-methyl-1-phenyl-], “↑* (↑*: <0.01)”.

Still in this series, the particulars now being: different-cell pair co-culture headspace (Format-3); 72 h; averaged peak area (n = 3).
As to `C=CCOCCC` [1-Propene, 3-propoxy-], the “Category (VOC increased or decreased relative to the control)” value is given as “↑”.

As to `CC(C)C(O)C(O)C(C)C` (stereo not drawn) [meso-2,5-Dimethyl-3,4-hexanediol], the “Category (VOC increased or decreased relative to the control)” value is on record as “↑”. Still for that read-out and setting: under `COC(=O)[C@H](C)N` [L-Alanine, methyl ester] stands “↑”; under `CCCC(=N)N` [Butanimidamide], “↑”.

For the compound `CC=COCC` [Ethyl-1-propenyl ether], the “Category (VOC increased or decreased relative to the control)” value is recorded as “↑* (↑*: <0.01)”.

As to `CCC(C)CCC(C)CCCCC(C)C` (stereo not drawn) [Dodecane, 2,7,10-trimethyl-], the “Category (VOC increased or decreased relative to the control)” value is “↓”.

In the case of `CC1(c2ccccc2)CNC1` [Azetidine, 3-methyl-3-phenyl-], the “Category (VOC increased or decreased relative to the control)” value was “↑”. Still for that read-out and setting: under `CC[C@H](c1ccc(O)cc1)[C@@H](CC)c1ccc(O)cc1` [Hexestrol] stands “↑”. As to `CN(C)c1cc(C(=O)O)cc(C(=O)O)c1` [1,3-benzenedicarboxylic acid, 5-(dimethylamino)-], the “Category (VOC increased or decreased relative to the control)” value is given as “↑* (↑*: <0.01)”.

Take `NC(=O)CF` [Acetamide, 2-fluoro-]: the “Category (VOC increased or decreased relative to the control)” value is “↑* (↑*: <0.01)”. Turning to `CC(C)CCCC(C)CCC(C)C` (stereo not drawn) [Decane, 2,5,9-trimethyl-], the “Category (VOC increased or decreased relative to the control)” value was “↓”. On to `CNCCS(=O)(=O)O` [N-Methyltaurine], for which the “Category (VOC increased or decreased relative to the control)” value is on record as “↑”. Same read-out and setting: under `COc1ccc(C=CC(=O)O)cc1OC` [3,4-Dimethoxycinnamic acid] stands “↓”; under `O=C(O)CC(C(=O)O)c1ccccc1` (stereo not drawn) [Butanedioic acid, phenyl-], “↑* (↑*: <0.01)”; under `N#C/C=C/C#N` [Fumaronitrile], “↑”. For the compound `Cc1ccc(C=Nc2ccc(C)cc2)cc1` [4-Methylbenzylidene-4-methylaniline], the “Category (VOC increased or decreased relative to the control)” value is recorded as “↑”.

Regarding `CCC(C)CCCC(C)CCCC(C)C` (stereo not drawn) [Dodecane, 2,6,10-trimethyl-], the “Category (VOC increased or decreased relative to the control)” value is on record as “↑”. Take `CCOC(=O)C1Oc2ccccc2O1` [1,3-Benzodioxole-2-carboxylic acid, ethyl ester]: the “Category (VOC increased or decreased relative to the control)” value was “↑* (↑*: <0.01)”.

Regarding `CC(O)(C(=O)O)C(=O)O` [Methyltartronic acid], the “Category (VOC increased or decreased relative to the control)” value is on record as “↑* (↑*: <0.01)”. The same measure, in the same setting: under `CC(C)(N)C(=O)O` [α-Aminoisobutanoic acid] stands “↓”.

Consider `CCCCCCCCCCCCOCCCCCCCC` [Dodecyl octyl ether], for which the “Category (VOC increased or decreased relative to the control)” value is “↑”. On the same count and under the same terms, to `CC(C)CCOC(=O)C1CCC1` [Cyclobutanecarboxylic acid, 3-methylbutyl ester] belongs “↑* (↑*: <0.01)”; to `CCCCC(=O)C(=O)CCCC` [5,6-Decanedione], “↑* (↑*: <0.01)”; to `CCCCC(CC)COC(=O)c1ccccc1` (stereo not drawn) [Benzoic acid, 2-ethylhexyl ester], “↑”. For `Cc1cc(-c2ccccc2)nc(-c2ccccc2O)n1` [Phenol, 2-(4-methyl-6-phenyl-2-pyrimidinyl)-], the “Category (VOC increased or decreased relative to the control)” value is listed as “↑* (↑*: <0.01)”. On the same count and under the same terms, to `COC(C)(C)C` [Propanc, 2-methoxy-2-methyl-] belongs “↑* (↑*: <0.01)”; to `CCC(C)(C)CC` [Pentane, 3,3-dimethyl-], “↑”; to `CCCCCCCCCCCCCCC(C)C` [Hexadecane, 2-methyl-], “↑* (↑*: <0.01)”.

In the next series the test system is A549, H1299, H1975 human lung cancer lines and BEAS-2B normal cell line, each cultured alone. Kind of series: VOCs headspace analysis (ITEX GC-MS) of mono-culture groups (Format-1), bulk cell samples 1×10^4 cells. Format: cell-based. Also noted: key to Category (VOC increased or decreased relative to the control): ↑: Increased; ↓: decreased; ↑*: <0.01; ↑**: <0.001. Conditions: mono-culture groups (Format-1); 48 h incubation; averaged peak area (n = 3).
For `CCCCCCC(C)=O` [2-Octanone], the “Category (VOC increased or decreased relative to the control)” value is “↑”.
